The assay has as its target T1, GST-EvpC (Edwardsiella tarda) (UniProt Q6EE19).
T1 sequence: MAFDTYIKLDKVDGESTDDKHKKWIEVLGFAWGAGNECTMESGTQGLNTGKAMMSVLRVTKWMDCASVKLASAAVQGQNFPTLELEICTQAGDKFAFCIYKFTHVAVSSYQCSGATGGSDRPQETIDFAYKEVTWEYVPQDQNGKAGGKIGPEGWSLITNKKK
Briefly: pull-down; GST-EvpC (100 µg) on glutathione-sepharose 4B beads, EvpP or truncation mutant (200 µg) added, 1x PBS, 4°C, at least 2 h, SDS-PAGE; both purified.

These are yes or no findings as the source states them, for the method shown. Binding calls can cover weak binding; strength is not graded here. Where a sequence is shown, tags or fusion partners need not be part of it.

For the substance “EvpP(1-168), C-terminal truncation mutant of EvpP (Edwardsiella tarda PPD130/91) (domain or fragment)”, the binding entry is on record as “binds”.

The record behind these values is paper PMC4234509.
